# Measured values taken from the supplement of paper PMC3682954.
# Where a name gives a salt, the structure may show the parent alone. ± gives the standard deviation of the averaged measurements. Some of the results follow. Single values are uncertain, as repeats are few or missing.
# Test system: RAW 264.7
# Assay: HMGB1-induced TNF-alpha production relative to HMGB1-stimulated control; higher = more TNF-alpha secretion (less inhibition)
# Details: stimulus: HMGB1 5 ug/ml, 18 h
# [1] = compound concentration: 1 ug/ml
Compound,HMGB1-induced TNF-alpha production (compound concentration: 3 uM) [%],HMGB1-induced TNF-alpha production [1] [%]
CCC(=O)c1c(O)cc(O)cc1O,74.6,
CC1Cc2ccccc2N1NC(=O)c1ccc(Cl)c(S(N)(=O)=O)c1 (centres undefined) [Indapamide],42.8 ± 60,
CC1Cc2ccccc2N1NC(=O)c1ccc(Cl)c(S(N)(=O)=O)c1 (centres undefined),89.5,
Nc1nc2[nH]c(=O)cnc2c(=O)[nH]1 [Isoxanthopterin],100,
CC(C)(C)[C@]1(O)CCN2C[C@H]3c4ccccc4CCc4cccc(c43)[C@@H]2C1 (racemic) [(±)-Butaclamol hydrochloride],79.2,
CC(C)(C)[C@]1(O)CCN2C[C@H]3c4ccccc4CCc4cccc(c43)[C@@H]2C1 [Butaclamol (+)],104,
CC(C)(C)[C@]1(O)CCN2C[C@H]3c4ccccc4CCc4cccc(c43)[C@@H]2C1 [(+)-Butaclamol hydrochloride],113,
"O=c1cc(-c2ccc(O)cc2)oc2cccc(O)c12 [4',5-Dihydroxyflavone]",,70.8
CC(C)C[C@@H]1NC(=O)[C@H](CCCN)NC(=O)[C@H](C(C)C)NC(=O)[C@H](Cc2ccc(O)cc2)N[C@@H](CCC(=O)O)C(=O)N[C@@H](CC(N)=O)C(=O)[C@@H](Cc2ccccc2)NC(=O)[C@H](Cc2ccccc2)NC(=O)[C@@H]2CCCN2C(=O)[C@@H](Cc2ccccc2)NC1=O,31.3,
COc1ccc2cc(C(C)C(=O)O)ccc2c1 (centres undefined),87,
Nc1ncnc2c1nc(Sc1ccc(Cl)cc1)n2C1OC2COP(=O)(O)O[C@@H]2[C@@H]1O (some centres undefined) [8-(4-Chlorophenylthio)-cAMP sodium],53.5,
COC(=O)CC[C@@H](C)[C@H]1CC[C@H]2[C@@H]3[C@H](O)C[C@@H]4C[C@H](O)CC[C@]4(C)[C@H]3C[C@H](O)[C@]12C [Methyl cholate],,43.9
NCCNC(=O)c1ncsc1-c1cccc(F)c1 [Ro 41-1049 hydrochloride],103,
Cc1cc(CC(=O)O)n(C)c1C(=O)c1ccc(Cl)cc1,101,
Cc1cc(CC(=O)O)n(C)c1C(=O)c1ccc(Cl)cc1 [Zomepirac sodium salt],89.7,
CCCCCCCCCCCCCCCC(=O)O[C@@H]1[C@@H](O)[C@@H](O)[C@@H]([C@H](NC(=O)[C@@H]2C[C@@H](CCC)CN2C)[C@H](C)Cl)O[C@@H]1SC,86.7,
CCCCCCCCCCCCCCCC(=O)O[C@@H]1[C@@H](O)[C@@H](O)[C@@H]([C@H](NC(=O)[C@@H]2C[C@@H](CCC)CN2C)[C@H](C)Cl)O[C@@H]1SC [Clindamycin palmitate],95.6,
O=C(O)C1=CCCNC1 [Guvacine hydrochloride],85.2,
CC(=O)Nc1ncc([N+](=O)[O-])s1,89.1,
OC1(c2ccc(Cl)c(C(F)(F)F)c2)CCN(CCCC(c2ccc(F)cc2)c2ccc(F)cc2)CC1,84.6,
C[C@@H]1C[C@H]2[C@@H]3CCC4=CC(=O)C=C[C@]4(C)[C@@]3(F)[C@@H](O)C[C@]2(C)[C@@]1(O)C(=O)CO,29.6,
C[C@@H]1C[C@H]2[C@@H]3CCC4=CC(=O)C=C[C@]4(C)[C@@]3(F)[C@@H](O)C[C@]2(C)[C@@]1(O)C(=O)CO [Dexamethasone],43.1,

Compound,HMGB1-induced TNF-alpha production (compound concentration: 3 uM) [%],HMGB1-induced TNF-alpha production [1] [%]
O=C(O)COC(=O)Cc1ccccc1Nc1c(Cl)cccc1Cl [Aceclofenac],94.4 ± 1.3,
Cc1cnc(NC(=O)C2=C(O)c3ccccc3S(=O)(=O)N2C)s1 [Meloxicam sodium],113,
Cc1cnc(NC(=O)C2=C(O)c3ccccc3S(=O)(=O)N2C)s1,91.6,
Cc1cnc(NC(=O)C2=C(O)c3ccccc3S(=O)(=O)N2C)s1 [Meloxicam],65.5 ± 20,
CC(C)NCC(O)COc1ccc(CC(N)=O)cc1 (racemic) [(±)-Atenolol],96.8,
O=C(O)CCCc1ccccc1 [Sodium Phenylbutyrate],78.4,
CC1(C)O[C@@H]2C[C@H]3[C@@H]4CCC5=CC(=O)C=C[C@]5(C)[C@@]4(F)[C@@H](O)C[C@]3(C)[C@]2(C(=O)CO)O1,42.6,
N=C(N)SCCc1c[nH]cn1 [Imetit dihydrobromide],98.9,
COc1cc2ccc(=O)oc2cc1OC1OC(COC2OC(C)C(O)C(O)C2O)C(O)C(O)C1OC1OC(C)C(O)C(O)C1O (centres undefined) [Haploperozide],,71.1
C1CCN2C[C@@H]3C[C@@H](CN4CCCC[C@@H]34)[C@H]2C1,93.3,
O=C(N[C@@H](Cc1c[nH]c2ccccc12)C(=O)O)OCC1c2ccccc2-c2ccccc21 [Nalpha-FMOC-L-Tryptophan],,73.7
CC1CC(OC(=O)C(O)c2ccccc2)CC(C)(C)N1C (centres undefined),92.4,
CC1CC(OC(=O)C(O)c2ccccc2)CC(C)(C)N1C (centres undefined) [Eucatropine hydrochloride],109,
OC[C@H]1O[C@@H](n2cnc3c(NCc4ccco4)ncnc32)[C@H](O)[C@@H]1O [Kinetin-9-riboside],,74.3
CCCCCCCC/C=C/CCCCCCCCOP(=O)([O-])OCC[N+](C)(C)C,106,
Cc1nnc(NS(=O)(=O)c2ccc(N)cc2)s1 [Sulfamethizole],101,
Cc1nnc(NS(=O)(=O)c2ccc(N)cc2)s1,85.3,
CN(C)c1ccc(/C=C2/C(=O)Nc3ccccc32)cc1,110,
COc1cc(NS(C)(=O)=O)ccc1Nc1c2ccccc2nc2ccccc12 [Amsacrine hydrochloride],71.3,
COc1cc(NS(C)(=O)=O)ccc1Nc1c2ccccc2nc2ccccc12,96.1 ± 35,
CCN1CCC[C@H]1CNC(=O)c1c(OC)ccc(Br)c1OC [Remoxipride Hydrochloride],68,
CCN1CCC[C@H]1CNC(=O)c1c(OC)ccc(Br)c1OC [Remoxipride],92.1,

# Pulled one by one from the list above:
Compound,HMGB1-induced TNF-alpha production (compound concentration: 3 uM) [%],HMGB1-induced TNF-alpha production [1] [%]
CC1(C)O[C@@H]2C[C@H]3[C@@H]4CCC5=CC(=O)C=C[C@]5(C)[C@@]4(F)[C@@H](O)C[C@]3(C)[C@]2(C(=O)CO)O1,42.6,
Cc1cc(CC(=O)O)n(C)c1C(=O)c1ccc(Cl)cc1,101,
Cc1cnc(NC(=O)C2=C(O)c3ccccc3S(=O)(=O)N2C)s1 [Meloxicam sodium],113,
